Values from PubChem BioAssay AID1259254 (NCATS, 2017).

Test: 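Gene knock-downs that lead to re-replication, shown by excess G2 DNA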 (primary screen)
Cells: human HCT116 colorectal cancer cells
Reagents: single siRNA against human genes
Time to read-out: 3 days
Measured: 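Nuclei stained with Hoechst and imaged; cell-cycle phase assigned by DNA content; G2 share scaled per plate, non-targeting siRNA 0%, GMNN siRNA 100%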
Direction: G2 robust z-score and G2 cells, % of GMNN control: higher = more G2 cells, more excess DNA replication; raw share of cells in G2: higher = larger share of cells with G2 DNA content
Hit rule: 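Active siRNAs have a G2 robust z of 5 or more median absolute deviations over the median, which in these data means about 38% or higher of GMNN control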
Shown is a random part of about 59,000 reagents tested. In the full data, about 1,550 (2.6%) are marked active. 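G2 share is only a proxy for re-replication; each gene was hit by three separate siRNAs, and active genes were retested.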 The raw values are shown without normalisation. The numbers tell different reagents against one gene apart. Not stated in the record: the amount of reagent.

The opening 5 records, to show the layout:
| target gene | reagent no. | G2 robust z-score | G2 cells, % of GMNN control | raw share of cells in G2 (%) | activity call |
| --- | --- | --- | --- | --- | --- |
| RSPH3 | 1 | 0.255 | 4.76 | 5.69 | inactive |
| RSPH3 | 2 | -1.37 | -6.65 | 1.48 | inactive |
| RSPH3 | 3 | -0.958 | -3.77 | 1.26 | inactive |
| PLEKHA8P1 | 1 | -0.704 | -1.98 | 2.63 | inactive |
| PLEKHA8P1 | 2 | -0.588 | -1.17 | 3.41 | inactive |

Results, from the start:
| target gene | reagent no. | G2 robust z-score | G2 cells, % of GMNN control | raw share of cells in G2 (%) | activity call |
| --- | --- | --- | --- | --- | --- |
| RSPH3 | 1 | 0.255 | 4.76 | 5.69 | inactive |
| RSPH3 | 2 | -1.37 | -6.65 | 1.48 | inactive |
| RSPH3 | 3 | -0.958 | -3.77 | 1.26 | inactive |
| PLEKHA8P1 | 1 | -0.704 | -1.98 | 2.63 | inactive |
| PLEKHA8P1 | 2 | -0.588 | -1.17 | 3.41 | inactive |
| PLEKHA8P1 | 3 | 2.3 | 19.2 | 11.8 | inactive |
| FIBP | 1 | -1.05 | -4.42 | 3.17 | inactive |
| FIBP | 2 | -0.606 | -1.29 | 3.38 | inactive |
| FIBP | 3 | -0.673 | -1.77 | 2.72 | inactive |
| ABCC2 | 1 | 5.42 | 41.1 | 20 | active |
| ABCC2 | 2 | -0.0517 | 2.6 | 4.99 | inactive |
| ABCC2 | 3 | 1.01 | 10.1 | 8.55 | inactive |
| EGFLAM | 1 | 0.686 | 7.8 | 7.11 | inactive |
| EGFLAM | 2 | 3.52 | 27.7 | 11.9 | inactive |
| EGFLAM | 3 | 0.8 | 8.6 | 5.7 | inactive |
| PHF3 | 1 | 0.768 | 8.37 | 7.56 | inactive |
| PHF3 | 2 | 0.228 | 4.57 | 5.92 | inactive |
| PHF3 | 3 | -0.89 | -3.29 | 2.15 | inactive |
| TP73 | 1 | -0.398 | 0.164 | 3.53 | inactive |
| TP73 | 2 | 1.73 | 15.1 | 11.9 | inactive |
| TP73 | 3 | 2.44 | 20.1 | 10.4 | inactive |
| UTP25 | 1 | -0.321 | 0.712 | 4.13 | inactive |
| UTP25 | 2 | 0.717 | 8.01 | 7.58 | inactive |
| UTP25 | 3 | -0.772 | -2.46 | 2.48 | inactive |
| LRRC74B | 1 | 1.78 | 15.5 | 9.45 | inactive |
| LRRC74B | 2 | -0.116 | 2.15 | 4.37 | inactive |
| LRRC74B | 3 | 1.95 | 16.7 | 11.7 | inactive |
| PILRB | 1 | -0.0366 | 2.71 | 3.75 | inactive |
| PILRB | 2 | -0.277 | 1.02 | 6.37 | inactive |
| PILRB | 3 | 0.427 | 5.97 | 5.51 | inactive |
| UBE2F | 1 | 0.538 | 6.75 | 7.54 | inactive |
| UBE2F | 2 | -1.22 | -5.64 | 3.27 | inactive |
| UBE2F | 3 | 1.86 | 16 | 10.6 | inactive |
| CFDP1 | 1 | -0.663 | -1.7 | 4.56 | inactive |
| CFDP1 | 2 | -0.583 | -1.13 | 3.47 | inactive |
| CFDP1 | 3 | 1.78 | 15.5 | 9.04 | inactive |
| ZNF808 | 1 | 2.74 | 22.2 | 11.3 | inactive |
| ZNF808 | 2 | 1.96 | 16.7 | 8.84 | inactive |
| ZNF808 | 3 | 1.78 | 15.5 | 8.53 | inactive |
| LYLDT1 | 1 | -0.996 | -4.04 | 2.47 | inactive |
| LYLDT1 | 2 | 2.75 | 22.3 | 9.99 | inactive |
| LYLDT1 | 3 | -0.251 | 1.2 | 2.17 | inactive |
| RPL18AP4 | 1 | 0.753 | 8.27 | 5.72 | inactive |
| RPL18AP4 | 2 | -0.211 | 1.49 | 3.12 | inactive |
| RPL18AP4 | 3 | 0.0219 | 3.12 | 5.35 | inactive |
| WAPL | 1 | -1.16 | -5.2 | 2.95 | inactive |
| WAPL | 2 | 0.635 | 7.43 | 7.2 | inactive |
| WAPL | 3 | 1.87 | 16.1 | 9.21 | inactive |
| TTLL10 | 1 | -0.472 | -0.351 | 5.79 | inactive |
| TTLL10 | 2 | 2.36 | 19.5 | 11.9 | inactive |
| TTLL10 | 3 | 1.14 | 11 | 9.32 | inactive |
| SERPINB11 | 1 | 2.39 | 19.8 | 14.9 | inactive |
| SERPINB11 | 2 | 0.0646 | 3.42 | 6.44 | inactive |
| SERPINB11 | 3 | -1.34 | -6.47 | 2.04 | inactive |
| KLHL14 | 1 | -0.449 | -0.192 | 4.27 | inactive |
| KLHL14 | 2 | -0.383 | 0.272 | 4.59 | inactive |
| KLHL14 | 3 | -0.729 | -2.16 | 2.35 | inactive |
| TCERG1L | 1 | 0.0751 | 3.5 | 4.85 | inactive |
| TCERG1L | 2 | -0.489 | -0.472 | 2.97 | inactive |
| TCERG1L | 3 | 0.878 | 9.15 | 6.11 | inactive |
| NLGN4Y | 1 | -0.557 | -0.954 | 5.99 | inactive |
| NLGN4Y | 2 | 1.21 | 11.5 | 7.99 | inactive |
| NLGN4Y | 3 | 0.122 | 3.83 | 5.18 | inactive |
| PCK1 | 1 | 0.0105 | 3.04 | 4.24 | inactive |
| PCK1 | 2 | 0.397 | 5.76 | 7.09 | inactive |
| PCK1 | 3 | 3.67 | 28.8 | 16.1 | inactive |
| ADAM7 | 1 | -0.286 | 0.957 | 5.89 | inactive |
| ADAM7 | 2 | -1.51 | -7.68 | 2.19 | inactive |
| ADAM7 | 3 | -0.095 | 2.3 | 4.77 | inactive |
| RNF11 | 1 | 4.48 | 34.5 | 14.5 | inactive |
| RNF11 | 2 | -0.677 | -1.8 | 2.16 | inactive |
| RNF11 | 3 | 1.15 | 11 | 10.9 | inactive |
| C4BPB | 1 | -1.25 | -5.81 | 2.58 | inactive |
| C4BPB | 2 | 0.608 | 7.25 | 6.74 | inactive |
| C4BPB | 3 | 0.858 | 9.01 | 7.05 | inactive |
| PTGFR | 1 | -0.757 | -2.36 | 5 | inactive |
| PTGFR | 2 | 2.81 | 22.7 | 12.5 | inactive |
| PTGFR | 3 | 0.772 | 8.4 | 5.85 | inactive |
| FABP7 | 1 | 1.29 | 12 | 9.6 | inactive |
| FABP7 | 2 | -0.758 | -2.37 | 4.36 | inactive |
| FABP7 | 3 | -0.289 | 0.936 | 3.99 | inactive |
| CD22 | 1 | -0.615 | -1.36 | 3.63 | inactive |
| CD22 | 2 | 0.195 | 4.34 | 6.51 | inactive |
| CD22 | 3 | 1.22 | 11.6 | 9.22 | inactive |
| MALRD1 | 1 | -1.24 | -5.77 | 2.01 | inactive |
| MALRD1 | 2 | -0.661 | -1.68 | 2.52 | inactive |
| MALRD1 | 3 | 0.206 | 4.41 | 5.97 | inactive |
| MALRD1 | 4 | 1.54 | 13.8 | 9.21 | inactive |
| MALRD1 | 5 | -0.275 | 1.03 | 3.65 | inactive |
| MALRD1 | 6 | 0.925 | 9.48 | 6.8 | inactive |
